From publication PMC6160390
These are yes or no findings as the source states them, for the method shown. Binding seen in cells or lysates may run through a third protein. Some binding calls cover weakened binding; strength is not graded here.

Amino acid sequences for entries named in this document (tags omitted). Residues count along the entry.
UniProt P01589, residues 22-272: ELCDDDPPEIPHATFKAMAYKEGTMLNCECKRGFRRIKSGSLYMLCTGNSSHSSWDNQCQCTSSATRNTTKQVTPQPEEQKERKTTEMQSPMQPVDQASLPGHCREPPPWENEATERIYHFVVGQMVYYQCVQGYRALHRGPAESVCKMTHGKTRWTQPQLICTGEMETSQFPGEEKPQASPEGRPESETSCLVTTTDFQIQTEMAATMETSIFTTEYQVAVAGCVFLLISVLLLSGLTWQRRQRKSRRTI
UniProt P63010: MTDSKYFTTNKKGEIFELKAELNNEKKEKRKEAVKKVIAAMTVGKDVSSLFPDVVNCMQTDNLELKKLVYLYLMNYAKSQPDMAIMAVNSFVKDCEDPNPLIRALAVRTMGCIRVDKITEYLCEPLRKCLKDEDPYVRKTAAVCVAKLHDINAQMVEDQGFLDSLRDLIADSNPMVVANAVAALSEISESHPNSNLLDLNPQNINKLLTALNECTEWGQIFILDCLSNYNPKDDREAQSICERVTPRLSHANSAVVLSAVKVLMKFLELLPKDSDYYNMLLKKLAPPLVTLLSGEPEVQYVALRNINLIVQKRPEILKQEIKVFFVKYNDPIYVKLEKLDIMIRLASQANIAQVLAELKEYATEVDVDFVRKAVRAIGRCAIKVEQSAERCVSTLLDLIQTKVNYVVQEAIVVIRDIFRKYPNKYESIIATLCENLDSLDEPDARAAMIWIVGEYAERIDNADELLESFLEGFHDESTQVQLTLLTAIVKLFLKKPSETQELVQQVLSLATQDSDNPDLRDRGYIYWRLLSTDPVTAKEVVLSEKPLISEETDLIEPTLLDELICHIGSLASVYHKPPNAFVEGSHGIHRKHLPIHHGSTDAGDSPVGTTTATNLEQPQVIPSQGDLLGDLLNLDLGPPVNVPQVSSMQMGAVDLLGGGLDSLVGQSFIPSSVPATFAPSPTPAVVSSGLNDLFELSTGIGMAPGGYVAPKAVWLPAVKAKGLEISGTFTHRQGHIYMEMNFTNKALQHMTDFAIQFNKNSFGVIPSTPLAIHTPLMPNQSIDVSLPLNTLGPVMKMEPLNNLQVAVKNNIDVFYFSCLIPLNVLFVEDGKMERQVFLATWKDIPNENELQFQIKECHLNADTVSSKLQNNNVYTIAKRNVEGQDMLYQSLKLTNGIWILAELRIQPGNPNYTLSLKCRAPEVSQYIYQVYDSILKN
UniProt Q00610: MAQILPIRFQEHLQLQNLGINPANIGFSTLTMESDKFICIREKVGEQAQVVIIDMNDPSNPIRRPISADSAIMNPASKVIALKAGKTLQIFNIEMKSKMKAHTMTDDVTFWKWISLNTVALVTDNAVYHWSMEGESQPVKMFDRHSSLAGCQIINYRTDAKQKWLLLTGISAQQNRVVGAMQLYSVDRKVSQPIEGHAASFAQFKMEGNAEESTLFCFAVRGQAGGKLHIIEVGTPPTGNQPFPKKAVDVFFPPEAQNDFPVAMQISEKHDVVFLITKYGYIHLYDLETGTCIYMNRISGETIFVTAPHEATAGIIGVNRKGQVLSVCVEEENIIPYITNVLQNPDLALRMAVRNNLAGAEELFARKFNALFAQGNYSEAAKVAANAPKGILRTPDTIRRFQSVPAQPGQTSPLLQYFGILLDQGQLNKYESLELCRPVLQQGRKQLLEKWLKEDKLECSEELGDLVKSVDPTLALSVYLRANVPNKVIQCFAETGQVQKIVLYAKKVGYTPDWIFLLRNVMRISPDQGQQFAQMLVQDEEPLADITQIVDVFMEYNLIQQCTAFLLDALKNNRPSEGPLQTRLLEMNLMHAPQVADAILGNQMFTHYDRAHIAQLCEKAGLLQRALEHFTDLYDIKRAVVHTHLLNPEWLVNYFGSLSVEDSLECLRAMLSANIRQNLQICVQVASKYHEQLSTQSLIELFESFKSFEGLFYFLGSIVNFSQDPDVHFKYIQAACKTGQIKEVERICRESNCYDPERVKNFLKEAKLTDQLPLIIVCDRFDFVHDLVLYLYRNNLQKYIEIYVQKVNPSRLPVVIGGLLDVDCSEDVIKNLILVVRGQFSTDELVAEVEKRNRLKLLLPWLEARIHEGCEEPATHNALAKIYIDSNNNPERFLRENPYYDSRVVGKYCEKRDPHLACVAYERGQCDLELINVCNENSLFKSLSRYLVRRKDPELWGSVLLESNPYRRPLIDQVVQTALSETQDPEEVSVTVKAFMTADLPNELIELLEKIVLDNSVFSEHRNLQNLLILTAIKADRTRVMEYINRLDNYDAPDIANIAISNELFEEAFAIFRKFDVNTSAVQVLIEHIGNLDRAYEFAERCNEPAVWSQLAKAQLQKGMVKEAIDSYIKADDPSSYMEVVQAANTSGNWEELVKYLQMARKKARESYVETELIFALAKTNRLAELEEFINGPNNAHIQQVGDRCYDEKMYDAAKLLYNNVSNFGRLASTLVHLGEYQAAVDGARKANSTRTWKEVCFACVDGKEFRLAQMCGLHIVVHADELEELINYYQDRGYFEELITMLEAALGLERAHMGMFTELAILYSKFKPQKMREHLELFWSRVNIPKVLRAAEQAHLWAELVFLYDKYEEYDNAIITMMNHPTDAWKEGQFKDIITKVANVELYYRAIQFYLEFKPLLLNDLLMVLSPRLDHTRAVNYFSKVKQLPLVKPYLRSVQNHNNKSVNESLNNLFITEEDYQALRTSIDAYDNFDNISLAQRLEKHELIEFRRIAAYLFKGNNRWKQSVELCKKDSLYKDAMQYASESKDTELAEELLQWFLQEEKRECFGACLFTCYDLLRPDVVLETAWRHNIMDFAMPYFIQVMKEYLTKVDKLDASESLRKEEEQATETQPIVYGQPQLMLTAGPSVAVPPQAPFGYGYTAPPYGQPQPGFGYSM
UniProt O95782: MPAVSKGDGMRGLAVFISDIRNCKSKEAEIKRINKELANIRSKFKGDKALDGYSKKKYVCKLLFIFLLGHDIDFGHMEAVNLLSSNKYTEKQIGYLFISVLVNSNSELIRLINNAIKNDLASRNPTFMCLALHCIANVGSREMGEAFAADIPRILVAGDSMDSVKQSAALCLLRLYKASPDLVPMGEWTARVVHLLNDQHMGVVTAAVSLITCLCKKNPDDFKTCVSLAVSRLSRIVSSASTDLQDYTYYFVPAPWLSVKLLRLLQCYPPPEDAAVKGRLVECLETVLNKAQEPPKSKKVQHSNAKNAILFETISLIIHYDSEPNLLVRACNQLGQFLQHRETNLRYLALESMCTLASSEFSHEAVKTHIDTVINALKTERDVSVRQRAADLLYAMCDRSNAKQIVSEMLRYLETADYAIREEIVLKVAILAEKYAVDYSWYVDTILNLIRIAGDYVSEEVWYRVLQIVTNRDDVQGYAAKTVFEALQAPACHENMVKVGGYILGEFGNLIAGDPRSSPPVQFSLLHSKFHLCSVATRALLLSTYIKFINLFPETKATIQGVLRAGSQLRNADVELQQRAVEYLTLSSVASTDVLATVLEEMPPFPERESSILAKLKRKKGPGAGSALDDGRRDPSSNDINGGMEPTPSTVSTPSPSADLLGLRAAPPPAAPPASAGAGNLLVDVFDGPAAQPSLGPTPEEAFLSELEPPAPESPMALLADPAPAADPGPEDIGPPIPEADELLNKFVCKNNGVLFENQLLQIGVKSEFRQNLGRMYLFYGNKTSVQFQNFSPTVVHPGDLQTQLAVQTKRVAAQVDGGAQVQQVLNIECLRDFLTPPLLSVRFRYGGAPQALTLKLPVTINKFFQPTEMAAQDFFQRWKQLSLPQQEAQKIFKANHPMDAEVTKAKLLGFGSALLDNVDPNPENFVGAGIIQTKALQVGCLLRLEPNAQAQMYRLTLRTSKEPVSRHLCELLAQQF

What follows are substances tested against FRBT2098L-HA-hTAC (UniProt P01589) (assay: co-IP; co-immunoprecipitation with an anti-HA antibody in hTAC-HeLa cell lysates; elution immunoblotted).

binding, binds weakly:
AP2B1 (from UniProt P63010 1-937), CLTC (from UniProt Q00610 1-1675), AP2A1 (from UniProt O95782 1-977)
